Taken from: PubChem BioAssay AID1259264 (Sanger Institute, 2017)
Shown is an unselected part of 794 reagents. Of all reagents, 15 (1.9%) are marked active. 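Calls rest on knock-down alone at z-score below -3; synergy scores with the three drugs do not decide them.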 Entries without a mark were called inactive. Viability is capped at 1. Further read-outs or replicates are left out here. Not given: the amount of reagent, the time to read-out.

Test: 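Kinase-wide knock-down to find genes that strengthen targeted drug effects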 (primary screen)
Cells: CL40 human colorectal cancer cells
Reagents: siRNA pool against human genes
Conditions: DMSO, or an anchor drug: BYL719 at 1 µM, cetuximab at 5 µg/ml, or trametinib at 10 nM
Read-out: 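Replicate-mean viability versus a non-targeting pool, robust z-score from control wells, and mean synergy with BYL719 1 µM, cetuximab 5 µg/ml or trametinib 10 nM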
Scale: robust z-score, siRNA alone and viability, siRNA alone: higher = more viable cells
Units: viability, siRNA alone in fraction of control
Hit rule: 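a gene counts as essential when knock-down without drug gives a robust z-score below -3, meaning fewer cells; synergy scores play no part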
Meaning of the calls: active = essential (lowers viability alone); inactive = not essential

PNCK [SID152151558] → robust z-score, siRNA alone: -1.09; viability, siRNA alone: 0.884
PCK2 [SID56479157] → robust z-score, siRNA alone: 0.539; viability, siRNA alone: 1
CDC7 [SID56478594] → robust z-score, siRNA alone: 0.385; viability, siRNA alone: 0.989
PIK3R2 [SID135620607] → robust z-score, siRNA alone: 0.269; viability, siRNA alone: 0.981
DYRK1A [SID135620889] → robust z-score, siRNA alone: 0.539; viability, siRNA alone: 1
SRMS [SID56479047] → robust z-score, siRNA alone: -0.599; viability, siRNA alone: 0.918
AKT3 [SID56478465] → robust z-score, siRNA alone: 0.539; viability, siRNA alone: 1
TK2 [SID152153963] → robust z-score, siRNA alone: 0.539; viability, siRNA alone: 1
CLK3 [SID56478875] → robust z-score, siRNA alone: 0.539; viability, siRNA alone: 1
CDK5 [SID56478599] → robust z-score, siRNA alone: 0.539; viability, siRNA alone: 1
MLKL [SID56479010] → robust z-score, siRNA alone: -0.416; viability, siRNA alone: 0.932
SRGAP3 [SID152151814] → robust z-score, siRNA alone: 0.539; viability, siRNA alone: 1
EFNA3 [SID135623696] → robust z-score, siRNA alone: 0.0601; viability, siRNA alone: 0.966
GUCY2D [SID135620972] → robust z-score, siRNA alone: -6.32 (active); viability, siRNA alone: 0.508
IP6K1 [SID135621239] → robust z-score, siRNA alone: 0.539; viability, siRNA alone: 1
EPHA5 [SID152153658] → robust z-score, siRNA alone: 0.539; viability, siRNA alone: 1
COASY [SID56479117] → robust z-score, siRNA alone: -1.34; viability, siRNA alone: 0.865
TWF2 [SID56478547] → robust z-score, siRNA alone: 0.328; viability, siRNA alone: 0.985
PIK3CG [SID56478988] → robust z-score, siRNA alone: -0.566; viability, siRNA alone: 0.921

Entries listed above marked active, once more:
GUCY2D [SID135620972] → robust z-score, siRNA alone: -6.32 (active); viability, siRNA alone: 0.508
